Measured values: article PMC12656381
For at least one entry, the source does not settle the construct or the ends of the probe. At least one result comes from cells or an extract, where the contact may be indirect. For some assays here: Negatives hold for the conditions tested. Where a protein sequence is shown, tags need not be part of it.

How the values were obtained:
[1] = target: T1, PS (psNTP9, pea apyrase) (Pisum sativum (pea)) (UniProt P52914); test: EMSA; conditions: poly dI-dC, EMSA: 10 mM Tris pH 7.5, 50 mM KCl, 1 mM DTT, 1 ug/uL poly dI-dC, 20 uL, 200 ng protein, room temperature 20-30 min, 6% native PAGE, 0.5x TBE, protein in a lysate after overexpression
T1 sequence (looked up, limits assumed): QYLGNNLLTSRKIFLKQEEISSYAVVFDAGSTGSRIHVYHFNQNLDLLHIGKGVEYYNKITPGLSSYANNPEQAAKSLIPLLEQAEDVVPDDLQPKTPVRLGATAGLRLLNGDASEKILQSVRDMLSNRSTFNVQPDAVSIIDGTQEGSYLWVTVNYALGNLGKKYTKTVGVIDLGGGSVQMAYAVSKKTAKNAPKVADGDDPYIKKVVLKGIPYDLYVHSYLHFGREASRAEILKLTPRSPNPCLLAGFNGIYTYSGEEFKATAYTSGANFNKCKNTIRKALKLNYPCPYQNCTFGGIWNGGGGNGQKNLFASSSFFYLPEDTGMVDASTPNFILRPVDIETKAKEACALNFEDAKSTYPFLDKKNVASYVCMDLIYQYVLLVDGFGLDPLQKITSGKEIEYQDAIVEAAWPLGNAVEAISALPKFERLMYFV

[2] = target: T1, PS (psNTP9, pea apyrase) (Pisum sativum (pea)); test: competition with a labelled probe; conditions: EMSA: 10 mM Tris pH 7.5, 50 mM KCl, 1 mM DTT, 1 ug/uL poly dI-dC, 20 uL, 200 ng protein, room temperature 20-30 min, 6% native PAGE, 0.5x TBE, protein in a lysate after overexpression
[3] = label: 3' biotin on both strands

Row | Sequence | binding result [1] | binding result [1, 3] | further results
1 | AGTTATTTTAACTAATAAACAGATAAAAAGAAATAAAAAGTACTAAATTGGTAAATTATCGTAGTATCAT (double strand) [WRKY42 test] | binds |  | binding result ([2]; 200-fold excess unlabeled WRKY42 reduces binding): binds
2 | AGTTATTTTAACTAATAAACAGATAAAAAGAAATAGCCTACACTAAATTGGTAAATTATCGTAGTATCAT (double strand) [WRKY42 mutant] |  | no binding | 
3 | ATAATGTTACGCAGTTCCGAGCTTCGCTGACACGTGGGAGGTGGGATATAATATTTGCACGGGTTC (double strand) [PHM6 test] | binds |  | binding result ([2]; 200-fold excess unlabeled PHM6 reduces binding): binds
4 | TTCACTTTTCAACTTATCCCTCTCAATCCCCACCACCACCACTCTCTATTCCCTCATATAGATAGATCAT (double strand) [PER50 test] | binds |  | binding result ([2]; 200-fold excess unlabeled PER50 inhibits binding): binds
5 | TTCACTTTTCAACTTATCCCTCTCAATCCCCAGTCCTATGACTCTCTATTCCCTCATATAGATAGATCAT (double strand) [PER50 mutant] |  | no binding | 
